At least one structure is not confirmed: it was looked up by name or label, or the drawing left a doubt.
System: green kyllinga (Kyllinga brevifolia Rottb. var. leiolepis)
Experiment: Test Example 10: foliar treatment of green kyllinga (height 6 to 7 cm), visual growth inhibition rate
Assay type: in vivo
Conditions: practical doses; summary of Table 9
Procedure: Upland field soil was put into a 1/1,000,000 ha pot, and rhizomes of green kyllinga (Kyllinga brevifolia Rottb. var. leiolepis) were planted. When the green kyllinga reached a height of from 6 to 7 cm, predetermined amounts of Lentagran WP (tradename) and WG formulation containing as an active ingredient amicarbazone having the same mode of action as pyridate (tradename: Dinamic, manufactured by Arysta Life Science) were diluted with water (in an amount corresponding to 2,000 L/ha) and applied for foliar treatment by a small sprayer. Separately, upland field soil was put into a 1/300,000 ha pot, and turf of manilagrass (Zoysia matrella (L.) Merr.) was put. After the manilagrass took root, predetermined amounts of Lentagran WP (tradename) and Dinamic (tradename) were diluted with water (in an amount corresponding to 2,000 L/ha) and applied for foliar treatment by a small sprayer.
On the 27th day after treatment, the state of growth of green kyllinga was visually observed, and on the 28th day after treatment, the state of growth of the manilagrass was visually observed, to determine the growth inhibition rate (%).

CCCCCCCCSC(=O)Oc1cc(Cl)nnc1-c1ccccc1 [Pyridate, O-6-chloro-3-phenylpyridazin-4-yl S-octylthiocarbonate]
activity against green kyllinga: high activity against green kyllinga

Source: patent publication US9339038B2, “Herbicidal composition” (priority 2012, dated 2016)
